Laboratory results reported in patent US8796201B2 (The Board of Trustees of the Leland Stanford Junior …, priority 2002, dated 2014).
For part of these data: At least one read-out could not be matched to a standard name with certainty. Some of these results come from one statement about several compounds together.

Assays:
[1] = Kinetic analysis with reference substrate Succinyl-Ala-Pro-pNA; format: biochemical; conditions: Succinyl-Ala-Pro-p-nitroanilide hydrolysis
Method: (§1) Activity Assays. Post-proline cleavage activity was measured using Z-Gly-Pro-p-nitroanilide and Succinyl-Ala-Pro-p-nitroanilide (Bachem, CA). Z-Gly-Pro-pNA was dissolved in a PBS:water:dioxane (8:1.2:0.8) assay mixture. The concentration of Z-Gly-Pro-pNA was varied from 100-600 μM. Although the substrate Z-Gly-Pro-pNA was effective in detecting enzyme activity, its insolubility at higher concentrations precluded kinetic measurements under substrate-saturated conditions. In contrast, Succinyl-Ala-Pro-pNA, had the advantage of high water solubility at all pH values tested, and was therefore a preferred substrate for kinetic studies. […] Reaction mixtures ([…] consisted of 30 μl of 10× pH buffer, final concentration of 0.01 μM enzyme, and Suc-Ala-Pro-pNA to final concentrations between 100 μM to 4 mM.
Kinetic Analysis with Reference Substrates. The activity of each PEP was initially evaluated using the standard chromogenic substrate succinyl-Ala-Pro-pNA. Release of the p-nitroaniline was detected at 410 nm, and kinetic data was fitted to the Michaelis-Menten relationship. Succinyl-Ala-Pro-pNA was selected as a reference substrate instead of the more commonly used Z-Gly-Pro-pNA due to the low solubility of the latter substrate, which necessitated use of co-solvents. The calculated kcat and KM values of FM, MX and SC PEPs for succinyl-Ala-Pro-pNA are tabulated (Table 3). […]

PQPQLPYPQPQLP = assay: Competitive assay of PEP specificity for gliadin peptide versus Suc-Ala-Pro-pNA; format: biochemical, wheat; conditions: substrate PQPQLPYPQPQLP, 100 μM each substrate, 0.02 μM PEP, 25° C.
Method: Substrate Specificity. In addition to the reference substrates above, enzyme specificity was also evaluated using two immunogenic peptides derived from the sequence of γ-gliadin proteins in gluten. Both peptides were synthesized using solid-phase peptide synthesis. The peptide (SEQ ID NO:4) […] contains the immunodominant γII-epitope, and is resistant to proteolysis by pepsin or any pancreatic enzyme. PEP specificity toward this substrate was assessed in a competitive assay in which 100 μM (SEQ ID NO:4) […] and 100 μM Suc-Ala-Pro-pNA were mixed and reacted with 0.02 μM PEP at 25° C. The initial velocity of Suc-Ala-Pro-pNA cleavage was measured spectrophotometrically, whereas the initial velocity of (SEQ ID NO:4) […] hydrolysis was determined via HPLC. The apparent specificity, kcat/KM, for the hydrolysis of (SEQ ID NO:4) […] could be determined based on the known kcat/KM of the enzyme for Suc-Ala-Pro-pNA and the observed reaction rates of the two substrates. […]
The kcat/KM values of each PEP were determined in an assay mixture containing (SEQ ID NO:4) […] as well as Suc-Ala-Pro-pNA as a competing substrate. The rates of disappearance of both substrates were determined by independent detection methods. The initial rate of disappearance of (SEQ ID NO:4) […] was measured by HPLC, whereas the rate of consumption of Suc-Ala-Pro-pNA was measured spectrophotometrically. […]

[2] = Enzyme activity vs. pH (kcat titration); format: biochemical; conditions: 100-4000 μM succinyl-Ala-Pro-pNA
Method: FIG. 8. Effect of pH on the turnover numbers (kcat) of FM PEP, MX PEP and SC PEP.
as §1
Enzyme Activity vs. pH. The luminal environment of the duodenum is approximately at pH 6. Therefore, a therapeutically useful PEP must retain high specific activity at that pH. The steady state turnover rate, kcat, of each PEP was titrated in various pH conditions using 100-4000 μM succinyl-Ala-Pro-pNA, shown in FIG. 8. […] Such conformational changes have been implicated in the catalytic cycle of the structurally characterized porcine brain PEP.

B1: FM PEP: recombinant prolyl endopeptidase from Flavobacterium meningosepticum (Genbank D10980) (protein)
chain: QNSNVLKYPETKKVSHTDTYFGTQVSDPYRWLEDDRAEDTKAWVQQEVKFTQDYLAQIPFRDQLKKQLMDIWNYEKISAPFKKGKYTYFSKNDGLQAQSVLYRKDAAGKTEVFLDPNKFSEKGTTSLASVSFNKKGTLVAYSISEGGSDWNKIIILDAETKKQLDETLLDVKFSGISWLGDEGFFYSSYDKPKEGSVLSGMTDKHKVYFHKLGTKQSQDELIIGGDKFPRRYIGAYVTDDQRYLVVSAANATNGNELYIKDLKNKTDFIPIITGFDSNVNVADTDGDTLYLFTDKDAPNKRLVKTTIQNPKAETWKDVIAETSEPLEINTGGGYFFATYMKDAIDQVKQYDKNGKLVRAIKLPGSGNASGFGGEKTEKDLYYSFTNYITPPTIFKYNVTTGNSEVYQKPKVKFNPENYVSEQVFYTSSDGTKIPMMISYKKGLKKDGKNPTILYSYGGFNISLQPAFSVVNAIWMENGGIYAVPNIRGGGEYGKKWHDAGTKMQKKNVFNDFIAAGEYLQKNGYTSKEYMALSGRSNGGLLVGATMTMRPDLAKVAFPGVGVLDMLRYNKFTAGAGWAYDYGTAEDSKEMFEYLKSYSPVHNVKAGTCYPSTMVITSDHDDRVVPAHSFKFGSELQAKQSCKNPILIRIETNAGHGAGRSTEQVVAENADLLSFALYEMGIKSLK
- Kcat/KM [1]: 37 mM^−1/s^−1
- Kcat/KM (PQPQLPYPQPQLP): 178 mM^−1/s^−1
- pH range of optimal activity [2]: 6-8
